No constants are given. Whether binding was seen depends on the method and setting. In cells and extracts the contact can be indirect. Some results given as binding are weak or reduced against the parent protein; the word gives no strength.

The chains behind the UniProt entries cited, without tags or fusion partners.
UniProt P84025: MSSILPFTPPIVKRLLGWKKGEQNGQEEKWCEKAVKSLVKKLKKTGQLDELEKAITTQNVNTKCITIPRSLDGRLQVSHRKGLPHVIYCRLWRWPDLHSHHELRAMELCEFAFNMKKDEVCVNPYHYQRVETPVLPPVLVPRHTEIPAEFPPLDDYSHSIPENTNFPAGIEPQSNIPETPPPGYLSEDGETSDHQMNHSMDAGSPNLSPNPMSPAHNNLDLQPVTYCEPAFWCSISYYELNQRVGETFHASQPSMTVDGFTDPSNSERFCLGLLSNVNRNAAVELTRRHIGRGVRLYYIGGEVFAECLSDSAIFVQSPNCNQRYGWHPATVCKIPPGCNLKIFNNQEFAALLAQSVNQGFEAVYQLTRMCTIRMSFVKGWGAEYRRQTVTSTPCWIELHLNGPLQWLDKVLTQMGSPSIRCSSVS

The test concerns the target Smad3 (rat (endogenous in Lewis rat heart tissue)) (UniProt P84025). In words: co-IP; heart tissue lysates (500 μg protein) of control, DCM, RSV-L and RSV-H rats; anti-Smad3 antibody 2 h at 4 °C, agarose A/G beads overnight at 4 °C, washed three times with PBS; Western blot with anti-Sirt1 antibody. (In general: Immunoblotting shows a protein as a band on a membrane.)

B1: silence information regulator 1 (Sirt1) (protein, UniProt A0A0G2JZ79 1-741)
chain: MADEAALALQAGGSPSAAAAMEAASQPADEPLRKRPRRDGPGLGRSPGEPSAAAAAAAAAAGCEAASAAAPAALWREAAGAAAASAEREAPATAAAGDGDNGPGLRREPRAADDFDDDEGEEEDEAAAAAAAAIGYRDNLLLADEIITNGFHSCESDDDDRASHASSSDWTPRPRIGPYTFVQQHLMIGTDPRTILKDLLPETIPPPELDDMTLWQIVINILSEPPKRKKRKDINTIEDAVKLLQECKKIIVLTGAGVSVSCGIPDFRSRDGIYARLAVDFPDLPDPQAMFDIEYFRKDPRPFFKFAKEIYPGQFQPSLCHKFIALSDKEGKLLRNYTQNIDTLEQVAGIQRIIQCHGSFATASCLICKYKVDCEAVRGDIFNQVVPRCPRCPADEPLAIMKPEIVFFGENLPEQFHRAMKYDKDEVDLLIVIGSSLKVRPVALIPSSIPHEVPQILINREPLPHLHFDVELLGDCDVIINELCHRLGGEYAKLCCNPVKLSEITEKPPRTQKELVHLSELPPTPLHISEDSSSPERTVPQDSSVIATLVDQTIKNKVDDLEVSEPKSCVEEKSQEVQTYRNVESINVENPDFKAVGSSTGDKNERTSVAETVRKCWPNRLAKEQISKRLDGNQYLFVPPNRYIFHGAEVYSDSEDDALSSSSCGSNSDSGTCQSPSLEEPLEDESEIEEFYNGLEDDADRPECAGGSGADGGDQEAVNEAIAMKQELTDVNCTPDKSEHY
B1: the binding result is given as “binds”.

The record behind these values is paper PMC8793224.
